Source: patent US9675592B2, “Methods and compositions for bacteria infections” (priority 2013, dated 2017)

Sequences of proteins named here, by UniProt entry; tags and fusion partners are left off. A change or cut given only in a name is not applied to a line headed by its entry. Residues count along the entry.
UniProt Q81ZH5: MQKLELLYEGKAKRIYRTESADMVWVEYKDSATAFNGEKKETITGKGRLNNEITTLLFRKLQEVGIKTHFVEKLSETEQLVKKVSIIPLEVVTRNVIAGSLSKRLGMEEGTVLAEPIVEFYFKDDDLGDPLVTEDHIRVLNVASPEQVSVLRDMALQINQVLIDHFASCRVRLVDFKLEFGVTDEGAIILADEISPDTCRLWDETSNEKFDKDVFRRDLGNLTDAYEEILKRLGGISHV
UniProt Q99SZ7, 70-347: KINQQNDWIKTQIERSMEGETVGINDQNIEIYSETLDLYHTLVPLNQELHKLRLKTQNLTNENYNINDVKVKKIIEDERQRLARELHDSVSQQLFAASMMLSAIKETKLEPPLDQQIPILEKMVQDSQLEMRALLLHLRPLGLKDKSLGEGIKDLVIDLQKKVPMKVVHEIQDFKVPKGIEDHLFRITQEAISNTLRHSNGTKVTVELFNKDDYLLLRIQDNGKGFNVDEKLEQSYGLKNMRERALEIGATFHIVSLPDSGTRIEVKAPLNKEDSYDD
UniProt Q7A4R9: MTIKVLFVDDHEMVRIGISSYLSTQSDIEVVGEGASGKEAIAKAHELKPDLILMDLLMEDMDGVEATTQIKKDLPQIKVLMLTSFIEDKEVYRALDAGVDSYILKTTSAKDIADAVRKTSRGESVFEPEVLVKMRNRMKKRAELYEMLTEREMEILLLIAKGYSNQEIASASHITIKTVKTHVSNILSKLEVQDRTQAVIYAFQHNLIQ

Legend:
Format in all cases: binding
[1] = molecular target: PurC (unrelated protein, control) (Bacillus anthracis, UniProt Q81ZH5); conditions: read-out: KD PurC (control)
[2] = molecular target: cytoplasmic domain of VraS (VraS-C) (Staphylococcus aureus, UniProt Q99SZ7); conditions: read-out: KD VraS
VraR = VraR (Staphylococcus aureus, UniProt Q7A4R9); conditions: read-out: KD VraR

Measured: Kd

CCN(CC)CCOc1ccc(C(=C(Cl)c2ccccc2)c2ccccc2)cc1 [Clo, Clomiphene]
> 100 µM: all assays above
